Test results: patent US20110293603A1
Results are given in words; binding and its absence hold for the method and conditions named. Some entries that bind do so weakly or less than the wild type. Values belong to the binder of their own block, whether it stands above or below them.

By UniProt entry, the sequences of proteins in these tests, tags left out. Residues count along the entry.
UniProt Q15109, residues 23-342: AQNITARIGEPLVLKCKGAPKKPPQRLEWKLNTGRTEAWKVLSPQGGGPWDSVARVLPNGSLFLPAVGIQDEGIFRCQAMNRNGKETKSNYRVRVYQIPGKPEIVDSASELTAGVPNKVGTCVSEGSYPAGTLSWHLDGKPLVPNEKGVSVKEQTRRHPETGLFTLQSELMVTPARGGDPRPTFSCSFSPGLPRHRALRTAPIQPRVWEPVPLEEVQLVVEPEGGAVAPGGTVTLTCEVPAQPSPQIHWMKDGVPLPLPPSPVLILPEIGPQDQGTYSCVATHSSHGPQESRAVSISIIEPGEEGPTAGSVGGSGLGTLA

Experiments:
[1] = target: extracellular part of recombinant human RAGE fused to human Fc (R&D Systems Cat No 1145-RG) (human) (UniProt Q15109); test: ELISA, rhRG coated at 2 ug/ml, nanobody 4-1000 nM, detection with anti-Myc 9E10
[2] = target: extracellular part of recombinant human RAGE fused to human Fc (R&D Systems Cat No 1145-RG) (human) (UniProt Q15109); test: immunoprecipitation of rhRG with nanobody on Talon beads, SDS-PAGE (legend of FIG. 1)
[3] = target: extracellular part of recombinant human RAGE fused to human Fc (R&D Systems Cat No 1145-RG) (human) (UniProt Q15109); test: immunoprecipitation of rhRG with nanobody on Talon beads, SDS-PAGE, anti-RAGE detection
[4] = target: extracellular part of recombinant human RAGE fused to human Fc (R&D Systems Cat No 1145-RG) (human) (UniProt Q15109); test: immunoprecipitation: myc/His-tagged nanobody on Talon beads, rhRG pulled out of solution, SDS-PAGE and blot with mouse anti-RAGE (upper part) and mouse anti-myc (lower part)

B1: Nanobody 108D11 (VHH)
VHH: EVQLVESGGGLVQAGGSLRLSCAVSGRTFSTDAFGWFRQAPGKEREFVSAMRWNGSSSYYADLVKGRFTISRDNAKNTVYLLMNSLKPEDTAVYYCTAGKRYGYYDYWGQGTQVTVSS
binding [1]: binds
binding [2]: binds
binding [3]: binds
binding [4]: binds

B3: Nanobody 108D3 (VHH)
VHH: EVQLVESGGGLVQAGGSLRLSCAASGRTFSNYSMGWFRQAPGKEREFVATISWSGALTHYTDSVKGRFTISRDNAKNTVYLQMNSLKPEDTAVYYCAASDSDYGNKYDYWGQGTQVTVSS
binding [1]: binds
binding [2]: binds
binding [3]: binds

B5: Nanobody 108E3 (VHH)
VHH: EVQLVESGGGLVQAGGSLRLSCAASGRTVSDMTMGWFRQAPGKERVFVAAISNSGLSTYYQDSVKGRFTISRDTANNTVALQMNSLKPEDTAVYFCAARSGWSGQYDYWGQGTQVTVSS
binding [1]: binds
binding [2]: binds
binding [3]: binds

Continued, values first:

binding [1]: binds
binding [2]: binds
binding [3]: binds
binding [4]: binds
B2: Nanobody 108G10 (VHH)
VHH: EVQLVESGGGLVQAGGSLRLSCAASGRIFNNYAMGWFRQAPGKEREFVAGISWSGDSTLYADSVKGRFTTSRDNAKNTVYLQMNSLKPEDTANYYCAEKQGADWAPYDYWGQGTQVTVSS

binding [1]: binds
binding [2]: binds
binding [3]: binds
binding [4]: binds
B4: Nanobody 108G12 (VHH)
VHH: EVQLVESGGGLVQAGGSLRLSCVASELTFSLYRMGWFRQAPGKEREFVSAMSTSGAGTYYADSVKGRFTISRDNPKNTVYLQMNSLKPEDTAVYYCVAGVRFGVYDYWGQGTQVTVSS
